Results taken from paper PMC11780777.
These are yes or no findings as the source states them, for the method shown. In cells and extracts the contact can be indirect. A yes stands for co-enrichment or nearness to the bait. Other partners may have been found. Each block holds one binder with its values, some of them ahead of it.

Amino acid sequences for entries named in this document (tags omitted).
UniProt Q96SW2: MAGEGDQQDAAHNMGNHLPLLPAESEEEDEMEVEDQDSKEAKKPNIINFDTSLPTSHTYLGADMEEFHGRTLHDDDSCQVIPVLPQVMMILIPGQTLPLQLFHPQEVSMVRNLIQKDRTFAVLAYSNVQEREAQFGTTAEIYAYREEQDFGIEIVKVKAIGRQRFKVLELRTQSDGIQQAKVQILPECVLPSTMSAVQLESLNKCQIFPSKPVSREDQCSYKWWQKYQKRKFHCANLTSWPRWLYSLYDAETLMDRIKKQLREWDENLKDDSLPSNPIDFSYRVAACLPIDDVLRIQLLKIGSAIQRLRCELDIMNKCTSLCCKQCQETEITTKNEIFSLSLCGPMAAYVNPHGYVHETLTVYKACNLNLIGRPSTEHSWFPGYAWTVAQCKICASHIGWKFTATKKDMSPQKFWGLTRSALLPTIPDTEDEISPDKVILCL

Molecular target: CRBN-FLAG-NLS-TurboID or CRBN-FLAG-NES-TurboID (UniProt Q96SW2)
Assay: proximity labelling; TurboID: CRBN-FLAG-NLS-TurboID or CRBN-FLAG-NES-TurboID in HEK293T for 48 h, biotin 50 uM for 30 min; biotinylated proteins purified with NeutrAvidin, digested with trypsin, LC-MS/MS; pcDNA3.1 as control

binding: binds
B1: endogenous PICALM (HEK293T) (protein, UniProt Q13492 1-652)
chain: MSGQSLTDRITAAQHSVTGSAVSKTVCKATTHEIMGPKKKHLDYLIQCTNEMNVNIPQLADSLFERTTNSSWVVVFKSLITTHHLMVYGNERFIQYLASRNTLFNLSNFLDKSGLQGYDMSTFIRRYSRYLNEKAVSYRQVAFDFTKVKRGADGVMRTMNTEKLLKTVPIIQNQMDALLDFNVNSNELTNGVINAAFMLLFKDAIRLFAAYNEGIINLLEKYFDMKKNQCKEGLDIYKKFLTRMTRISEFLKVAEQVGIDRGDIPDLSQAPSSLLDALEQHLASLEGKKIKDSTAASRATTLSNAVSSLASTGLSLTKVDEREKQAALEEEQARLKALKEQRLKELAKKPHTSLTTAASPVSTSAGGIMTAPAIDIFSTPSSSNSTSKLPNDLLDLQQPTFHPSVHPMSTASQVASTWGDPFSATVDAVDDAIPSLNPFLTKSSGDVHLSISSDVSTFTTRTPTHEMFVGFTPSPVAQPHPSAGLNVDFESVFGNKSTNVIVDSGGFDELGGLLKPTVASQNQNLPVAKLPPSKLVSDDLDSSLANLVGNLGIGNGTTKNDVNWSQPGEKKLTGGSNWQPKVAPTTAWNAATMAPPVMAYPATTPTGMIGYGIPPQMGSVPVMTQPTLIYSQPVMRPPNPFGPVSGAQIQFM

binding: binds
B2: endogenous NAC1 (HEK293T) (protein, UniProt Q96RE7 1-527)
chain: MAQTLQMEIPNFGNSILECLNEQRLQGLYCDVSVVVKGHAFKAHRAVLAASSSYFRDLFNNSRSAVVELPAAVQPQSFQQILSFCYTGRLSMNVGDQFLLMYTAGFLQIQEIMEKGTEFFLKVSSPSCDSQGLHAEEAPSSEPQSPVAQTSGWPACSTPLPLVSRVKTEQQESDSVQCMPVAKRLWDSGQKEAGGGGNGSRKMAKFSTPDLAANRPHQPPPPQQAPVVAAAQPAVAAGAGQPAGGVAAAGGVVSGPSTSERTSPGTSSAYTSDSPGSYHNEEDEEEDGGEEGMDEQYRQICNMYTMYSMMNVGQTAEKVEALPEQVAPESRNRIRVRQDLASLPAELINQIGNRCHPKLYDEGDPSEKLELVTGTNVYITRAQLMNCHVSAGTRHKVLLRRLLASFFDRNTLANSCGTGIRSSTNDPRRKPLDSRVLHAVKYYCQNFAPNFKESEMNAIAADMCTNARRVVRKSWMPKVKVLKAEDDAYTTFISETGKIEPDMMGVEHGFETASHEGEAGPSAEALQ
